From PMC7642682, “SPOR Proteins Are Required for Functionality of Class A Penicillin-Binding Proteins in Escherichia coli” (mBio, 2020) come the findings set out here.

For assay [1], the target named is T1, His-DedD (Escherichia coli) (UniProt P09549).
T1 sequence: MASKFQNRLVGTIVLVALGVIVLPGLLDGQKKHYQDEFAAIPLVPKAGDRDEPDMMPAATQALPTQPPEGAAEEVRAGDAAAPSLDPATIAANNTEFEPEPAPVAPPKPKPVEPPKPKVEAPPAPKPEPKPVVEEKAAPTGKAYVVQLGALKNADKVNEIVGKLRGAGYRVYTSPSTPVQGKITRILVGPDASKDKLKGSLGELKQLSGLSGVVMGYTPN
In words: pull-down; protein couples coexpressed in E. coli C43(DE3) from pETDuet; membranes solubilized with 40 mM DDM; HisTrap (nickel) column in 25 mM Tris-HCl pH 7.5, 500 mM NaCl, 4 mM DDM; wash with 80 mM imidazole, elution with 80 to 500 mM imidazole; N-terminal His tag on the SPOR protein as bait; PBPs detected in fractions by Bocillin FL, SDS-PAGE, fluorescence imaging and Coomassie staining.

The target in assay [2] is T2, His-DamX (Escherichia coli) (UniProt P11557).
T2 sequence: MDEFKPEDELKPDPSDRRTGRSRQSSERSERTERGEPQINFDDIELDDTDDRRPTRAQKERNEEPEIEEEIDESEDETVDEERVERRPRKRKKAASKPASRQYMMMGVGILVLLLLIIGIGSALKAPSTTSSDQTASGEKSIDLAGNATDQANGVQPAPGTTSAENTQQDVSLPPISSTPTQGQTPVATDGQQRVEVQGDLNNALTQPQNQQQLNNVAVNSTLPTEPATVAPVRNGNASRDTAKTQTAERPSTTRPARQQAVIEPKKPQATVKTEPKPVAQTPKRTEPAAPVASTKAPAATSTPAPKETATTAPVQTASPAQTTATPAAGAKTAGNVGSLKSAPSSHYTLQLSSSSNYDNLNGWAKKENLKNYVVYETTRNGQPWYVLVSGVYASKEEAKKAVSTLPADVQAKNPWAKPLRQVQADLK
The assay is described as above.

These are yes or no findings as the source states them, for the method shown. In cells and extracts the contact can be indirect. Some binding calls cover weakened binding; strength is not graded here. Tags and fused reporters may be left off the sequences shown.

B1: penicillin-binding protein 1A (PBP1A) (enzyme, UniProt P02918 1-850)
chain: MKFVKYFLILAVCCILLGAGSIYGLYRYIEPQLPDVATLKDVRLQIPMQIYSADGELIAQYGEKRRIPVTLDQIPPEMVKAFIATEDSRFYEHHGVDPVGIFRAASVALFSGHASQGASTITQQLARNFFLSPERTLMRKIKEVFLAIRIEQLLTKDEILELYLNKIYLGYRAYGVGAAAQVYFGKTVDQLTLNEMAVIAGLPKAPSTFNPLYSMDRAVARRNVVLSRMLDEGYITQQQFDQTRTEAINANYHAPEIAFSAPYLSEMVRQEMYNRYGESAYEDGYRIYTTITRKVQQAAQQAVRNNVLDYDMRHGYRGPANVLWKVGESAWDNNKITDTLKALPTYGPLLPAAVTSANPQQATAMLADGSTVALSMEGVRWARPYRSDTQQGPTPRKVTDVLQTGQQIWVRQVGDAWWLAQVPEVNSALVSINPQNGAVMALVGGFDFNQSKFNRATQALRQVGSNIKPFLYTAAMDKGLTLASMLNDVPISRWDASAGSDWQPKNSPPQYAGPIRLRQGLGQSKNVVMVRAMRAMGVDYAAEYLQRFGFPAQNIVHTESLALGSASFTPMQVARGYAVMANGGFLVDPWFISKIENDQGGVIFEAKPKVACPECDIPVIYGDTQKSNVLENNDVEDVAISREQQNVSVPMPQLEQANQALVAKTGAQEYAPHVINTPLAFLIKSALNTNIFGEPGWQGTGWRAGRDLQRRDIGGKTGTTNSSKDAWFSGYGPGVVTSVWIGFDDHRRNLGHTTASGAIKDQISGYEGGAKSAQPAWDAYMKAVLEGVPEQPLTPPPGIVTVNIDRSTGQLANGGNSREEYFIEGTQPTQQAVHEVGTTIIDNGEAQELF
Consider B1, for which the binding result in assay [1] is on record as “binds”.

B2: penicillin-binding protein 1B (PBP1B) (enzyme, UniProt P02919 1-844)
chain: MAGNDREPIGRKGKPTRPVKQKVSRRRYEDDDDYDDYDDYEDEEPMPRKGKGKGKGRKPRGKRGWLWLLLKLAIVFAVLIAIYGVYLDQKIRSRIDGKVWQLPAAVYGRMVNLEPDMTISKNEMVKLLEATQYRQVSKMTRPGEFTVQANSIEMIRRPFDFPDSKEGQVRARLTFDGDHLATIVNMENNRQFGFFRLDPRLITMISSPNGEQRLFVPRSGFPDLLVDTLLATEDRHFYEHDGISLYSIGRAVLANLTAGRTVQGASTLTQQLVKNLFLSSERSYWRKANEAYMALIMDARYSKDRILELYMNEVYLGQSGDNEIRGFPLASLYYFGRPVEELSLDQQALLVGMVKGASIYNPWRNPKLALERRNLVLRLLQQQQIIDQELYDMLSARPLGVQPRGGVISPQPAFMQLVRQELQAKLGDKVKDLSGVKIFTTFDSVAQDAAEKAAVEGIPALKKQRKLSDLETAIVVVDRFSGEVRAMVGGSEPQFAGYNRAMQARRSIGSLAKPATYLTALSQPKIYRLNTWIADAPIALRQPNGQVWSPQNDDRRYSESGRVMLVDALTRSMNVPTVNLGMALGLPAVTETWIKLGVPKDQLHPVPAMLLGALNLTPIEVAQAFQTIASGGNRAPLSALRSVIAEDGKVLYQSFPQAERAVPAQAAYLTLWTMQQVVQRGTGRQLGAKYPNLHLAGKTGTTNNNVDTWFAGIDGSTVTITWVGRDNNQPTKLYGASGAMSIYQRYLANQTPTPLNLVPPEDIADMGVDYDGNFVCSGGMRILPVWTSDPQSLCQQSEMQQQPSGNPFDQSSQPQQQPQQQPAQQEQKDSDGVAGWIKDMFGSN
For the molecule B2, the binding entry in assay [2] and in assay [1] was “binds” throughout.
